Test system: HLA-A*02 molecules of primary tumor and normal tissue samples
Test: Identification and relative quantitation of tumor associated peptides presented on the cell surface (label-free LC-MS presentation profiles, tumor vs normal tissues)
Design: species or system human
Settings: FIG. 1; more than 170 normal tissue samples and 376 cancer samples analysed; 8 kidney cancers, 1 liver cancer, 2 lung cancers, 2 rectal cancers; also 1 kidney cancer cell line

## 11 (LLDPKTIFL; listed as Homo sapiens) [compound 11]
  samples where the peptide was found to be presented: 13 cancer tissue samples
